Values of other authors in patent US6569229B1, “Low-freezing point formulation containing phenol derivatives” (Omya AG, priority 1998, dated 2003).
Some of these results come from one statement about several compounds together.

What was measured:
[1] = known commercial forms (o-phenylphenol in propylene glycol; aqueous salt solutions and emulsions); cited from earlier work
[2] = aqueous sodium o-phenylphenolate of 25% by wt.; potassium o-phenylphenolate of 35% by wt.; cited from earlier work

In the case of `[K+].[O-]c1ccccc1-c1ccccc1` [potassium o-phenylphenolate], the freezing point [1] is listed as < −15 °C and the pH value [2] is listed as “above 12”.
In the case of `[Na+].[O-]c1ccccc1-c1ccccc1` [sodium o-phenylphenolate], the pH value [2] is given as “above 12”.
For `Oc1ccccc1-c1ccccc1` [o-phenylphenol], the freezing point [1] is listed as < −15 °C.
